The list shows a part of the results. Small differences around the control level are noise.

By UniProt entry, the sequences of proteins in these tests, tags left out. Where a name states a change or a piece, a line headed by the entry shows the natural chain unless it says otherwise.
UniProt Q96ED9: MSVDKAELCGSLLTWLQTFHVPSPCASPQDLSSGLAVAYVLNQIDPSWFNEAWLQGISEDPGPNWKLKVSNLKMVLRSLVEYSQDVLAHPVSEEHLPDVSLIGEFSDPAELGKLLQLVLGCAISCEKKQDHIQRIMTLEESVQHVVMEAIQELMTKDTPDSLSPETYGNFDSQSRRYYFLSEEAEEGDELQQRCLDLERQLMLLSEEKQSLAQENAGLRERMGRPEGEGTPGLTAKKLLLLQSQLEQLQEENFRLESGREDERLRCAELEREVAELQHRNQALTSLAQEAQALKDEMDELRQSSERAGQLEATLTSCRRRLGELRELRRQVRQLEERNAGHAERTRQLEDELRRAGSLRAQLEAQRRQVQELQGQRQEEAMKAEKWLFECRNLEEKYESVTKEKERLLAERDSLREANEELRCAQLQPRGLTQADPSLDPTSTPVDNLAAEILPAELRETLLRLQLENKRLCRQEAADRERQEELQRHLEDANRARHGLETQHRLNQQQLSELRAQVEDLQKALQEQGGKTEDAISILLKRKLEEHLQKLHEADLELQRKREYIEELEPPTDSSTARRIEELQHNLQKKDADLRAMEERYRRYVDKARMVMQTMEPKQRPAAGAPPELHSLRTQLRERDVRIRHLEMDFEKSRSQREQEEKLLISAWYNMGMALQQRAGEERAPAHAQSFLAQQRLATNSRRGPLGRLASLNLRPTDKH
UniProt Q92851: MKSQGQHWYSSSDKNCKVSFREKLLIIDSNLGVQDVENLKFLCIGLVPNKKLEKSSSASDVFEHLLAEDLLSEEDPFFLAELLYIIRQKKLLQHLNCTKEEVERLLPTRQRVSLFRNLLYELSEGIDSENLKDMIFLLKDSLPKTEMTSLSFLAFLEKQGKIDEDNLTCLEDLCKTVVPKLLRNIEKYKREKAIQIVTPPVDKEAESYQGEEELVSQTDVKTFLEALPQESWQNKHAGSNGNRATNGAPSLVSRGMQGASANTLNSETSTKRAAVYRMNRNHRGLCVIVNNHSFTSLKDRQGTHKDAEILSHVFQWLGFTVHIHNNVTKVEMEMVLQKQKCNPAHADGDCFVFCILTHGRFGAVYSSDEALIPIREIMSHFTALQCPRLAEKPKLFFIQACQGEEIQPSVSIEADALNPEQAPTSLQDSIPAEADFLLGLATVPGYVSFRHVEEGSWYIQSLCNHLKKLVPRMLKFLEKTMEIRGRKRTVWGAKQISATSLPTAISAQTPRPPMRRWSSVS
UniProt Q96EF9: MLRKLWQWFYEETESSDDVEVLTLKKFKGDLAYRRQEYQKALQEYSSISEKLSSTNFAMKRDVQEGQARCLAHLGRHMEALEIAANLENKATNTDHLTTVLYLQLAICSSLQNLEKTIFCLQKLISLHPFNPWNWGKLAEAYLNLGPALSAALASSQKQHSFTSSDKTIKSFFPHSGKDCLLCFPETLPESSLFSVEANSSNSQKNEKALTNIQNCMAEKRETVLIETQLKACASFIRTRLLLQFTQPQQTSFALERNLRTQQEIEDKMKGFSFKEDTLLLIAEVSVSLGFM
UniProt Q969X6: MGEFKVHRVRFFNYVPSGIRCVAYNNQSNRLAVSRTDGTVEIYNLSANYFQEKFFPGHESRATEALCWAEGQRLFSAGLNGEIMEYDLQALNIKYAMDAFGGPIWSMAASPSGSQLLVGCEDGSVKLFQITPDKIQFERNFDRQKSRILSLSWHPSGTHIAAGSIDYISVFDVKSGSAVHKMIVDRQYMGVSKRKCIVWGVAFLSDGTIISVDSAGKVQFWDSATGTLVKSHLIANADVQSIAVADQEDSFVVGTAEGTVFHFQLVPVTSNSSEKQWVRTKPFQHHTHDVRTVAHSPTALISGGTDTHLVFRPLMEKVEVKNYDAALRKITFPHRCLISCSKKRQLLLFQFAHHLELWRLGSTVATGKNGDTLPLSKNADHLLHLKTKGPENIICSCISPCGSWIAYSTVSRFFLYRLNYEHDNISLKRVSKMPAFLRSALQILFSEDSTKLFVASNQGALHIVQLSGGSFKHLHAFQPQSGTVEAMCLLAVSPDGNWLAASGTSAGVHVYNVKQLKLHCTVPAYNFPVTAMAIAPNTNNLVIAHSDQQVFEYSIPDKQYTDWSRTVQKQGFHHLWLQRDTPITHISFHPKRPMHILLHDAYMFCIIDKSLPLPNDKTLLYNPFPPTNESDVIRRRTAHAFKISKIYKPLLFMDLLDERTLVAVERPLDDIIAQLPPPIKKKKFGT
UniProt Q96EV8: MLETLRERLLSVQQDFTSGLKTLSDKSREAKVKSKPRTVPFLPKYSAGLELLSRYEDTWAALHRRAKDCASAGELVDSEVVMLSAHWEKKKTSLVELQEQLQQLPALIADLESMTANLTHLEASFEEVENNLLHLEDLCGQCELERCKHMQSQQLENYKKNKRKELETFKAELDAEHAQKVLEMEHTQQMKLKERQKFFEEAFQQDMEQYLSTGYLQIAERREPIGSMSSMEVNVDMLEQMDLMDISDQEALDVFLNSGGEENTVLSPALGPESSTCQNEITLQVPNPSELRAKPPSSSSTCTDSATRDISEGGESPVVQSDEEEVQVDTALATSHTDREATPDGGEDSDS
UniProt Q96EV2: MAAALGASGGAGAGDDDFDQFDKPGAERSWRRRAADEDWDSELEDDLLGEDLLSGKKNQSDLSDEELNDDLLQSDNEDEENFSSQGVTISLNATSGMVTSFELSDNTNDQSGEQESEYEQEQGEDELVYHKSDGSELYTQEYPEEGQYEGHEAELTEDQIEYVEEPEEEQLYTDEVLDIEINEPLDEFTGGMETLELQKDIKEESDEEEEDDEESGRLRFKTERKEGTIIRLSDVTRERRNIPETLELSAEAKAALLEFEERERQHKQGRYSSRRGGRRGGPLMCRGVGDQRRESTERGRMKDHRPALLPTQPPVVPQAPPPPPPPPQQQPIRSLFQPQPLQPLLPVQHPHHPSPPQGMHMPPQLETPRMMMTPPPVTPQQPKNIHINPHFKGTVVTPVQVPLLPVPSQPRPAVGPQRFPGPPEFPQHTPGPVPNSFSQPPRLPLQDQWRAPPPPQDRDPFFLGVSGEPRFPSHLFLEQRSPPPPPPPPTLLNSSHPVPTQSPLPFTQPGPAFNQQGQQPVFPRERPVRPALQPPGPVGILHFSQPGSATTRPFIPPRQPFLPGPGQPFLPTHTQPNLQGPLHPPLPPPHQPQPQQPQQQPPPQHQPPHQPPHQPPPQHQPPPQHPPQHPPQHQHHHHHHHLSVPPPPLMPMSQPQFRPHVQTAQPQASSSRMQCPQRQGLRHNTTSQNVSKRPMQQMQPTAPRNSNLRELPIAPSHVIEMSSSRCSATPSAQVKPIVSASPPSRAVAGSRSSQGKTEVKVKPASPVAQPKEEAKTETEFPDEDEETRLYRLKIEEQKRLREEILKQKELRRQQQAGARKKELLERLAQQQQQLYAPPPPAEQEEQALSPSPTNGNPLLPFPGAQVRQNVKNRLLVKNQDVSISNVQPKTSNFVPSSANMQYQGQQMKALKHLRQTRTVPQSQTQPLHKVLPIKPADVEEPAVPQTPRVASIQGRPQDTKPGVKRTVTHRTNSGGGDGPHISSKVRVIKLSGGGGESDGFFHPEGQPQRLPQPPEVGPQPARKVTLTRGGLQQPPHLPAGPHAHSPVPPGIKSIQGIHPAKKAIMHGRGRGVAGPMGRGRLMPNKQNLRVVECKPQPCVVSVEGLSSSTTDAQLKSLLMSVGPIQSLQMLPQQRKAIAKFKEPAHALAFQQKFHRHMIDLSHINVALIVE
UniProt Q96EN9: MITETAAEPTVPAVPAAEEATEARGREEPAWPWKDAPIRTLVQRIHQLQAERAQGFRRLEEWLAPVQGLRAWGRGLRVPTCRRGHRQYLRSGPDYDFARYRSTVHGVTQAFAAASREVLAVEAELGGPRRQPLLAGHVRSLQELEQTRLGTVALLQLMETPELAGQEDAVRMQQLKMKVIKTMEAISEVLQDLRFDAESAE
UniProt Q969S9: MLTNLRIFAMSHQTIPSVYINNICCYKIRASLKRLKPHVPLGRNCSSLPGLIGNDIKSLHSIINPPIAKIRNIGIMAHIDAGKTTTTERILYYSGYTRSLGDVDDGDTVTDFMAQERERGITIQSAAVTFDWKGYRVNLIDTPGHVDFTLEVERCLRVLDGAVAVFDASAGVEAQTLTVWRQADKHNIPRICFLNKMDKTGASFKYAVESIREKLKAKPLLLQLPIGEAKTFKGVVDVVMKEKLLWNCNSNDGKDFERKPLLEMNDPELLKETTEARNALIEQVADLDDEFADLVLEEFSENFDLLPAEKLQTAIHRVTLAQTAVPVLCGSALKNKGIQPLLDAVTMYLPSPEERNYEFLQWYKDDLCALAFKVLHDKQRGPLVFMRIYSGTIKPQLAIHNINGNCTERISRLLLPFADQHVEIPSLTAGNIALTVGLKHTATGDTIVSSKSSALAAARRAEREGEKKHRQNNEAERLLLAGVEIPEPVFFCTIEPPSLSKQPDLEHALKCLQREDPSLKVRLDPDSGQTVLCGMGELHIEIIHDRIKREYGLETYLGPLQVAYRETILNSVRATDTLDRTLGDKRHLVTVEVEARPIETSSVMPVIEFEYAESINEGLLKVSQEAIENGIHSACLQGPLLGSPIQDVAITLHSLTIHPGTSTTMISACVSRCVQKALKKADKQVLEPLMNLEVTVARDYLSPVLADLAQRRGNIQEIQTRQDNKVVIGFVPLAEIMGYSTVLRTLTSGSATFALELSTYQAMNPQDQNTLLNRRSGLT
UniProt Q96DE0: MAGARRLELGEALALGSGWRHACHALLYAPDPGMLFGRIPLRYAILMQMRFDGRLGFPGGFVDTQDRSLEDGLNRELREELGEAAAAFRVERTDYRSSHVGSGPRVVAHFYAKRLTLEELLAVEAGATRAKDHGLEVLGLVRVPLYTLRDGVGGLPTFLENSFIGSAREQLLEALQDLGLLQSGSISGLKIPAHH
UniProt Q96BW9: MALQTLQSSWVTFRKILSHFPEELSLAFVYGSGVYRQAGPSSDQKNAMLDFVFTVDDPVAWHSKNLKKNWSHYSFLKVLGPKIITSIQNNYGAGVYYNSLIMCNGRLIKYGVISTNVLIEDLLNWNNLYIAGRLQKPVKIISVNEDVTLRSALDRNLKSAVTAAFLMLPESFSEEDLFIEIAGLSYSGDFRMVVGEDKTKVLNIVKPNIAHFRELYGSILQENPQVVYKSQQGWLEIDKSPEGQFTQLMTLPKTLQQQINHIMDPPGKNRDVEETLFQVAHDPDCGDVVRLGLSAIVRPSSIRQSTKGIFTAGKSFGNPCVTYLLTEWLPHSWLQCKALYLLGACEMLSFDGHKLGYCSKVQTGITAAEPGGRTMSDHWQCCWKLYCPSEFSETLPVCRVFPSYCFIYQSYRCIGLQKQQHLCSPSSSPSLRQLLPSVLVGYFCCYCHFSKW
UniProt Q969S3: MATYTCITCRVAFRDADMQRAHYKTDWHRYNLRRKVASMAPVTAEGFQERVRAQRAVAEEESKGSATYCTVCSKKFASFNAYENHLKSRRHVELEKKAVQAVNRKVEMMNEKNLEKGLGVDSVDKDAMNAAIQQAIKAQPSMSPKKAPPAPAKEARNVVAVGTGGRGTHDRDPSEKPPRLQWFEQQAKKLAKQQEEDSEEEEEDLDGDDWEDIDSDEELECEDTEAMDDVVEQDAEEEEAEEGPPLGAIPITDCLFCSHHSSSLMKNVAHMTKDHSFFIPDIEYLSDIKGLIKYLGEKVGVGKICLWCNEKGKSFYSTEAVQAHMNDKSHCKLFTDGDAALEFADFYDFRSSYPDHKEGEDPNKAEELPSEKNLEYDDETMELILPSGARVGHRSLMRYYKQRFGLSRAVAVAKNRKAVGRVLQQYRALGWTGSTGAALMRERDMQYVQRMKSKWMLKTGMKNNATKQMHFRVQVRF
UniProt Q96EB6: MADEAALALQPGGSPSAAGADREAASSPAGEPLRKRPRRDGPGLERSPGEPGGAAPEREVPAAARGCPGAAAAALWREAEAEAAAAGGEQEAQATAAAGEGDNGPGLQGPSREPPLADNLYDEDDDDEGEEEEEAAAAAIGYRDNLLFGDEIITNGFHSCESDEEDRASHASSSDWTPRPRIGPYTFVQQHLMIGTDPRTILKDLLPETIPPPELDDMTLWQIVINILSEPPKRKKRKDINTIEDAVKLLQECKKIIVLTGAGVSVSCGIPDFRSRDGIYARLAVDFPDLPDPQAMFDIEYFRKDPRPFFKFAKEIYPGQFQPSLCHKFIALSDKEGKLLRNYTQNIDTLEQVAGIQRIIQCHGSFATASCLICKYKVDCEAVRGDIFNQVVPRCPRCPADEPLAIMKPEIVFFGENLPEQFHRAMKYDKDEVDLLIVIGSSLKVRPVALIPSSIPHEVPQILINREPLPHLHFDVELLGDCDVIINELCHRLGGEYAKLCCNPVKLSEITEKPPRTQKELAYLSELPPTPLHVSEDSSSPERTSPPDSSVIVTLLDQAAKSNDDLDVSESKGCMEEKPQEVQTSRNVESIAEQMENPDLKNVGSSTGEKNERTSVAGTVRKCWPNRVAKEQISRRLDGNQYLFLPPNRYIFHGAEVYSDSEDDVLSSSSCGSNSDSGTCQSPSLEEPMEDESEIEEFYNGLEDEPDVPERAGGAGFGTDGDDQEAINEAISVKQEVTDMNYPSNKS

Compound in the experiment: Cc1nc(Nc2ncc(C(=O)Nc3c(C)cccc3Cl)s2)cc(N2CCN(CCO)CC2)n1 [dasatinib]
Kind of experiment: log2 fold change of tryptic peptide abundance, ligand vs vehicle (limited proteolysis) (log2 ratio); higher = more trypsin-susceptible (destabilized). The settings on record: ligand concentration: 5 uM; sample: K562 cleared lysate.

Turning to “HOOK2 (peptide sequence: LNQQQLSELR, peptide start residue: 505) (UniProt Q96ED9)”, the log2 fold change was found to be 0.543.

On to “SMARCD2 (peptide sequence: RLLVPQAQPPMPAQR, peptide start residue: 118) (UniProt Q92925)”, for which the log2 fold change is -0.255. With “TBRG4 (peptide sequence: DVLLDVAYAYGK, peptide start residue: 293) (UniProt Q969Z0)” the figure was 0.19; with “CASP10 (peptide sequence: EIMSHFTALQCPR, peptide start residue: 376) (UniProt Q92851)”, -0.543. On to “UniProt Q96EF9 (peptide sequence: FKGDLAYR, peptide start residue: 59)”, for which the log2 fold change was -0.12.

As to “UniProt Q969X6 (peptide sequence: QGFHHLWLQR, peptide start residue: 570)”, the log2 fold change was 0.154. With “DTNBP1 (peptide sequence: ERLLSVQQDFTSGLK, peptide start residue: 7) (UniProt Q96EV8)” the figure was -0.752; with “RBM33 (peptide sequence: RNIPETLELSAEAK, peptide start residue: 240) (UniProt Q96EV2)”, 0.315; with “REX1BD (peptide sequence: IHQLQAER, peptide start residue: 45) (UniProt Q96EN9)”, 0.136. As for “GFM2 (peptide sequence: KPLLEMNDPELLK, peptide start residue: 259) (UniProt Q969S9)”, the log2 fold change stood at 0.635. Take “VTI1A (peptide sequence: AHLLDNTERLER, peptide start residue: 116) (UniProt Q96AJ9)”: the log2 fold change is -0.142. Regarding “NUDT16 (peptide sequence: YAILMQMR, peptide start residue: 43) (UniProt Q96DE0)”, the log2 fold change was -0.141. To “UniProt Q96BW9 (peptide sequence: VLNIVKPNIAHFR, peptide start residue: 201)” belongs 0.555.

In the case of “ZNF622 (peptide sequence: NVVAVGTGGR, peptide start residue: 157) (UniProt Q969S3)”, the log2 fold change was 0.0729. To “Sirt1 (peptide sequence: LLQECKK, peptide start residue: 249) (UniProt Q96EB6)” belongs -0.168.

The values above are taken from the supplement of paper PMC12819154, “High-throughput peptide-centric local stability assay extends protein–ligand identification to membrane proteins, tissues and bacteria” (Nature Structural & Molecular Biology, 2025).
